The campaign covered roughly 350,000 compounds. About 220 (0.063%) were called active. Inconclusive means that the source gave no clear call. Such entries were picked first, then a sample of the others. The call rests on the fitted dose curve; in most records, active means well fitted activation curve with a large enough effect; inconclusive means small, poorly fitted or top-dose-only effect; inactive means no such curve, though single readings can be large or run the other way. A potency beside an inconclusive call is a rough fit, not a confirmed value.
Assay: qHTS for Activators of Integrin-Mediated Alleviation for Muscular Dystrophy; further: nearly all actives have a fitted effect of over 60% in size;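 on activation: 100% = response of the positive control SU9516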
Conditions: alpha7betagal myoblasts, beta-gal FDG fluorescence, 48 h; activation: at 38.3 µM (top of the series)
Summary of the method: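 alpha7betagal+/- myoblasts (passage 13, 250/well) treated 48 h at 37C with compounds at 1:260 dilution of DMSO stock. Lysed, then beta-galactosidase activity read as FDG fluorescence (ex 480/em 540) after 30 min, with pre-read for autofluorescence.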
Potency means the concentration at half of the fitted maximal effect.

Row | Structure (SMILES) | activation | Potency
1 | Cc1ccc(CC#N)c(-c2c(CC#N)ccc(C)c2C)c1C | inactive: -12.6% | –
2 | COc1ccccc1CC(=O)Nc1nc(-c2ccc(F)c(F)c2)cs1 | – | inconclusive: 5.01 µM [activator, single point]
3 | C/C(=N/OC(=O)CC(C)C)c1cc(-c2ccc(Cl)cc2)no1 | – | inconclusive: 10 µM [activator, partial curve]
4 | COc1cc(-c2nnn(Cc3ccccc3C)n2)cc(OC)c1OC | inactive: 1.34% | –
5 | CCCC(=O)Nc1cc(C(=O)O)ccc1S(=O)(=O)c1ccc(Cl)cc1 | – | inconclusive: 10 µM [activator, partial curve, poor fit]
6 | COc1ccc(-n2nc(C(=O)NCC(=O)N3CCOCC3)c3ccccc3c2=O)cc1OC | – | inconclusive: 31.6 µM [activator, single point]
7 | Cn1cccc1/C=N/NC(=O)C(O)c1ccccc1 (configuration not stated) | – | inconclusive: 25.1 µM [activator, single point]
8 | Cc1oc2c(CN3CCCCC3)c(O)ccc2c(=O)c1-c1ccc(Br)cc1 | – | inconclusive: 5.01 µM [activator, single point]
9 | CC(=O)O/N=C1\C(=O)N(Cc2ccc(C)cc2)c2ccccc21 | inactive: -27.9% | –
10 | CN(C)S(=O)(=O)c1cc(NC(=O)COC(=O)CCc2ccccc2)ccc1Cl | – | inconclusive: 10 µM [activator, single point]
11 | Cc1ccc(/C=N/NC(=O)c2ccc(Br)o2)s1 | inactive: -14.2% | –
12 | NS(=O)(=O)c1ccc(NCCCn2ccnc2)c([N+](=O)[O-])c1 | – | inconclusive: 0.501 µM [activator, full curve, poor fit]
13 | COc1ccc(NC(=O)CSC(C)c2nc3ccccc3c(=O)[nH]2)cc1 (configuration not stated) | inactive: 13% | –
14 | CCCS(=O)(=O)c1nc(S(=O)(=O)c2ccc(C)cc2)c(NCCCn2ccnc2)s1 | – | inconclusive: 3.98 µM [activator, full curve, poor fit]
15 | C=CCn1c(C)nnc1SCC(=O)Nc1ccc2c(c1)OCCO2 | – | inconclusive: 28.2 µM [activator, single point]
16 | COc1ccc(S(N)(=O)=O)cc1C(N)=O | – | inconclusive: 3.16 µM [activator, single point]
17 | CC(Oc1ccccc1)c1ccnn1S(C)(=O)=O (configuration not stated) | – | inconclusive: 10 µM [activator, single point]
18 | CC12CC3CC(C)(C1)CC(C(=O)Nc1nn[nH]n1)(C3)C2 | – | inconclusive: 5.62 µM [activator, partial curve, poor fit]
19 | Nc1nc(-c2ccccc2)c(-c2ccccc2)n1N | – | inconclusive: 22.4 µM [activator, single point]
20 | CCOc1ccc(CN2CCNC(=O)C2CC(=O)NCc2cc(C)n(C)n2)cc1 (configuration not stated) | inactive: 20.3% | –
21 | COc1ccc(OC)c(-c2csc(NC(=O)Cc3ccccc3F)n2)c1 | inactive: 2.44% | –
22 | Oc1ccccc1Oc1c(F)c(F)nc(N2CCCC2)c1F | – | inconclusive: 2.82 µM [activator, single point]
23 | COc1ccc(C)cc1NC(=O)CN1C(=O)COc2ccc(S(=O)(=O)N3CCCCCC3)cc21 | – | inconclusive: 10 µM [activator, single point]
24 | Cc1ccc(S(=O)(=O)Nc2c(C)cc(C)nc2Cl)cc1 | – | inconclusive: 3.16 µM [activator, single point]

Row | Structure (SMILES) | activation | Potency
25 | CC(C)COc1ccc(S(=O)(=O)NNC(=O)c2cc3ccccc3o2)cc1 | inactive: -0.387% | –
26 | O=C(CN1C(=O)COc2ccc(S(=O)(=O)N3CCCCC3)cc21)NCc1ccccc1Cl | – | inconclusive: 1.41 µM [activator, partial curve, poor fit]
27 | CN(C)CCCN1C(=O)C2CCc3[nH]c4ccccc4c3C2C1=O (configuration not stated) | inactive: 19.2% | –
28 | Cc1ccc(C(=O)Nc2cccc(C(=O)O)c2)cc1 | inactive: -8.18% | –
29 | O=c1[nH]c2ccccc2nc1Cc1ccc(Cl)cc1 | – | inconclusive: 2.24 µM [activator, full curve]
30 | Cc1ccc2nsnc2c1NC(=O)c1ccc([N+](=O)[O-])o1 | inactive: -62.2% | –
31 | COc1ccccc1-c1nnc(SCC(=O)c2c(N)n(C3CC3)c(=O)[nH]c2=O)n1C | – | inconclusive: 5.01 µM [activator, single point]
32 | CS(=O)(=O)c1ccc2nc(NC(=O)c3ccco3)sc2c1 | inactive: 29.5% | –
33 | COc1ccc(NS(=O)(=O)NC(=O)c2c[nH]c3ccccc23)cc1 | – | inconclusive: 28.2 µM [activator, single point]
34 | CCNc1nc(NCC)nc(Nn2cnnc2)n1 | – | inconclusive: 5.01 µM [activator, single point]
35 | CCOC(=O)c1sc2ncn(/N=C/c3ccc(O)c(OC)c3)c(=O)c2c1C | inactive: 2.98% | –
36 | Cc1cc(C(=O)Nc2ccc3c(c2)OCCO3)ccc1[N+](=O)[O-] | – | inconclusive: 2 µM [activator, partial curve, poor fit]
37 | CCN(CCn1cccn1)C(=O)CC1C(=O)NCCN1Cc1ccc(F)cc1 (configuration not stated) | – | inconclusive: 1.58 µM [activator, partial curve, poor fit]
38 | COc1ccc(-c2cc(C(=O)N3CCN(c4ccccc4)CC3)c3ccccc3n2)cc1 | inactive: -6.03% | –
39 | CN1CCN(C(=O)c2ccccc2N(Cc2ccccc2)S(C)(=O)=O)CC1 | inactive: 4.77% | –
40 | COc1ccc(O)c(-c2nc(N)nc(N)n2)c1 | inactive: 31.1% | –
41 | CC(C)(C)c1ccc(C(=O)Oc2ccc3c(c2)OCC3=O)cc1 | – | inconclusive: 28.2 µM [activator, single point]
42 | c1ccc(Nc2ccccc2)cc1 | – | inconclusive: 5.01 µM [activator, single point]
43 | O=C(CC1S/C(=N/N=C/c2ccco2)NC1=O)Nc1ccccc1 (configuration not stated) | – | inconclusive: 0.794 µM [activator, full curve, poor fit]
44 | CCCCc1nnc(NC(=O)C2=COCCO2)s1 | – | inconclusive: 5.01 µM [activator, single point]
45 | CCOc1cccc(CNCCO)c1OCc1ccc(Cl)cc1Cl | inactive: -58.9% | –
46 | Cc1nc2ccccc2c(=O)n1/N=C/c1ccc(C(C)C)cc1 | – | inconclusive: 3.16 µM [activator, single point]
47 | CCOC(=O)C1=C(CC)Nc2ccccc2N=C1NC(=O)c1ccc(OC)c(S(=O)(=O)N2CCCCC2C)c1 (configuration not stated) | – | active: 14.1 µM

Reformatted with each value named: two of the compounds above
CN(C)CCCN1C(=O)C2CCc3[nH]c4ccccc4c3C2C1=O (configuration not stated)
  activation: inactive: 19.2%
Cc1ccc(C(=O)Nc2cccc(C(=O)O)c2)cc1
  activation: inactive: -8.18%

Source: PubChem BioAssay AID624291 (National Center for Advancing Translational Sciences (NCATS), 2012)
